This passage reports binding results from publication doi:10.1101/690552.

Sequences of proteins named here, by UniProt entry; tags and fusion partners are left off.
UniProt O70546: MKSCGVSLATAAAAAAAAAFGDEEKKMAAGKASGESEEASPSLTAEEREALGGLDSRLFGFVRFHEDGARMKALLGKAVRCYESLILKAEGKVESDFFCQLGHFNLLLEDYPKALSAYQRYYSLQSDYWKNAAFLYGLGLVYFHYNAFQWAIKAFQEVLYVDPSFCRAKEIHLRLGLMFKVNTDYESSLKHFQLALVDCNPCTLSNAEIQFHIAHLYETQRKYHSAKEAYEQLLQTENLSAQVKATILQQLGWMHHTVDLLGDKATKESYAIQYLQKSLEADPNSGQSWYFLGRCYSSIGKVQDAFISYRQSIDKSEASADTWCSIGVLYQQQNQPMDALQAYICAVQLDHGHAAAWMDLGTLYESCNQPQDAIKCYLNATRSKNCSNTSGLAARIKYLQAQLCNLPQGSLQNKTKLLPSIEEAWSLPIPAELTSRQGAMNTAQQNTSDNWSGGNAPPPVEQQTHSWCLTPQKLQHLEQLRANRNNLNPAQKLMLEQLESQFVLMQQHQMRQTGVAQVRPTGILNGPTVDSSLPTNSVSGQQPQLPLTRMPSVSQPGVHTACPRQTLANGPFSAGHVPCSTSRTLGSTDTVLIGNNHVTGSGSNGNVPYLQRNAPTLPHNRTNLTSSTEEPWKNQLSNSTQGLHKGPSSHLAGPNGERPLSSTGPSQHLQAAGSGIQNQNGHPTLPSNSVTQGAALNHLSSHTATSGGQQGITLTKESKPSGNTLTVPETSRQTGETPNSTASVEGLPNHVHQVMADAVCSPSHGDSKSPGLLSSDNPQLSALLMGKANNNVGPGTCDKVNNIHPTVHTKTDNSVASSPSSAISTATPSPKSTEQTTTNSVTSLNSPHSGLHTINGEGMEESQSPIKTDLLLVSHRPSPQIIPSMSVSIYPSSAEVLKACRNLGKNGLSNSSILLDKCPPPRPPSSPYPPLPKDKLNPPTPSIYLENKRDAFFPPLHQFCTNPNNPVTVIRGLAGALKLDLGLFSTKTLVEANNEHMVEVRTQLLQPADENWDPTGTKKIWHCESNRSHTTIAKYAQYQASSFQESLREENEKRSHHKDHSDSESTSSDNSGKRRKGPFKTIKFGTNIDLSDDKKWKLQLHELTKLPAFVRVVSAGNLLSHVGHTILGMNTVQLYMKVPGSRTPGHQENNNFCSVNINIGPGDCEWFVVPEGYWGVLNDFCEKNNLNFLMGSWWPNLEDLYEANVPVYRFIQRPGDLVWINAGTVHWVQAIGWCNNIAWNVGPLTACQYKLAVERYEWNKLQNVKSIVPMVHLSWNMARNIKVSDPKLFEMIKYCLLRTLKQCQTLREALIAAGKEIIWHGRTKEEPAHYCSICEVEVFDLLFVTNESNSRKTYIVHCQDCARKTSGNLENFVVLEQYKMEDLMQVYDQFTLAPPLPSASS
UniProt P22361: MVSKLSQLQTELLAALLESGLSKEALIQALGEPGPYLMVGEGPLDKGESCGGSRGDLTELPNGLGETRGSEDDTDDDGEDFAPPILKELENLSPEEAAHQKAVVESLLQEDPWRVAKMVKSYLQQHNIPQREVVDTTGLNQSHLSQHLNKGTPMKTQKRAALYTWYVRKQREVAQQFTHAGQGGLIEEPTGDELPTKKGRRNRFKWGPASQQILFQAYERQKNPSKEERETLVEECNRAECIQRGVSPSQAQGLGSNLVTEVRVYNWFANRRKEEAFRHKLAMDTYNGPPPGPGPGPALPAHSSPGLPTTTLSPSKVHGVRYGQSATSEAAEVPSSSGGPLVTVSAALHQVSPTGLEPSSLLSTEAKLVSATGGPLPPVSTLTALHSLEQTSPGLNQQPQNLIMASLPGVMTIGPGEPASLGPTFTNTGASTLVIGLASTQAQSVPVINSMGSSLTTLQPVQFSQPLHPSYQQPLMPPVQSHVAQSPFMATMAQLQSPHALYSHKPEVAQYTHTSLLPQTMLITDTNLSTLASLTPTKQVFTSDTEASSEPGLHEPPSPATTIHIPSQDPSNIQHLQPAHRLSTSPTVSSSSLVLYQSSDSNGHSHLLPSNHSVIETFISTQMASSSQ

Results are given in words; binding and its absence hold for the method and conditions named. In cells and extracts the contact can be indirect. Some entries that bind do so weakly or less than the wild type.

The target in the test is UTX (mouse (endogenous in 266-6)) (UniProt O70546). Put plainly: co-IP.

For HNF1A (from UniProt P22361 1-628), the binding result is listed as “binds”.
